# Measured values reported in the supplement of paper PMC8728848.
# The list shows a part of the results.
# Assays:
# Experiment in all cases: glycan array binding signal (z-score within array); higher = stronger binding
# Settings in all cases: glycan notation: IUPAC condensed, linker removed
# [1] = molecular target: Gal(b1-3)GlcNAc(b1-2)Man(a1-3)[GlcNAc(b1-4)][Gal(b1-3)GlcNAc(b1-2)Man(a1-6)]Man(b1-4)GlcNAc(b1-4)GlcNAc
# Method in brief: (§1)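 Columns mapping to the same glycan were averaged after glycan names were converted to IUPAC-condensed notation. The data come from 3228 arrays in the Consortium for Functional Glycomics database, limited to those with an available protein sequence. Binding is reported as a within-array Z-score averaged across arrays of one protein sequence and across linkers.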
# [2] = molecular target: Gal(b1-3)GlcNAc(b1-2)[Gal(b1-3)GlcNAc(b1-6)]Man(a1-6)[Gal(b1-3)GlcNAc(b1-2)Man(a1-3)]Man(b1-4)GlcNAc(b1-4)GlcNAc
# Method in brief: as §1
# [3] = molecular target: Gal(b1-3)GlcNAc(b1-3)Gal(b1-3)GlcNAc
# Method in brief: as §1
# [4] = molecular target: Gal(b1-3)GlcNAc(b1-3)Gal(b1-4)Glc
# Method in brief: as §1
# [5] = molecular target: Gal(b1-3)GlcNAc(b1-3)Gal(b1-4)GlcNAc
# Method in brief: as §1
# [6] = molecular target: Gal(b1-3)GlcNAc(b1-3)Gal(b1-4)GlcNAc(b1-2)Man(a1-3)[Gal(b1-3)GlcNAc(b1-3)Gal(b1-4)GlcNAc(b1-2)Man(a1-6)]Man(b1-4)GlcNAc(b1-4)GlcNAc
# Method in brief: as §1
# [7] = molecular target: Gal(b1-3)GlcNAc(b1-3)Gal(b1-4)GlcNAc(b1-2)[Gal(b1-3)GlcNAc(b1-3)Gal(b1-4)GlcNAc(b1-6)]Man(a1-6)[Gal(b1-3)GlcNAc(b1-3)Gal(b1-4)GlcNAc(b1-2)Man(a1-3)]Man(b1-4)GlcNAc(b1-4)[Fuc(a1-6)]GlcNAc
# Method in brief: as §1
# [8] = molecular target: Gal(b1-3)GlcNAc(b1-3)Gal(b1-4)GlcNAc(b1-3)Gal(b1-4)GlcNAc(b1-2)[Gal(b1-3)GlcNAc(b1-3)Gal(b1-4)GlcNAc(b1-3)Gal(b1-4)GlcNAc(b1-6)]Man(a1-6)[Gal(b1-3)GlcNAc(b1-3)Gal(b1-4)GlcNAc(b1-3)Gal(b1-4)GlcNAc(b1-2)Man(a1-3)]Man(b1-4)GlcNAc(b1-4)[Fuc(a1-6)]GlcNAc
# Method in brief: as §1
# [9] = molecular target: Gal(b1-3)GlcNAc(b1-3)Gal(b1-4)GlcNAc(b1-6)[Gal(b1-3)GlcNAc(b1-3)]Gal(b1-4)Glc
# Method in brief: as §1
# [10] = molecular target: Gal(b1-3)GlcNAc(b1-3)Gal(b1-4)[Fuc(a1-3)]GlcNAc
# Method in brief: as §1
# [11] = molecular target: Gal(b1-3)GlcNAc(b1-3)Gal(b1-4)[Fuc(a1-3)]GlcNAc(b1-6)[Gal(b1-3)GlcNAc(b1-3)]Gal(b1-4)Glc
# Method in brief: as §1
# [12] = molecular target: Gal(b1-3)GlcNAc(b1-3)GalNAc
# Method in brief: as §1
# [13] = molecular target: Gal(b1-3)GlcNAc(b1-6)Gal(b1-4)GlcNAc
# Method in brief: as §1
# [14] = molecular target: Gal(b1-3)GlcNAc(b1-6)GalNAc
# Method in brief: as §1
# [15] = molecular target: Gal(b1-3)GlcNAc(b1-6)[Gal(b1-3)]GalNAc
# Method in brief: as §1
# Gal(b1-3)GlcNAc6S = molecular target: Gal(b1-3)GlcNAc6S
# Method in brief: as §1
# [16] = molecular target: Gal(b1-3)[Fuc(a1-4)]GlcNAc
# Method in brief: as §1
# [17] = molecular target: Gal(b1-3)[Fuc(a1-4)]GlcNAc(b1-2)Man
# Method in brief: as §1
# [18] = molecular target: Gal(b1-3)[Fuc(a1-4)]GlcNAc(b1-2)Man(a1-3)[Gal(b1-3)[Fuc(a1-4)]GlcNAc(b1-2)Man(a1-6)]Man(b1-4)GlcNAc(b1-4)[Fuc(a1-6)]GlcNAc
# Method in brief: as §1
# [19] = molecular target: Gal(b1-3)[Fuc(a1-4)]GlcNAc(b1-3)Gal(b1-3)[Fuc(a1-4)]GlcNAc
# Method in brief: as §1
# [20] = molecular target: Gal(b1-3)[Fuc(a1-4)]GlcNAc(b1-3)Gal(b1-4)[Fuc(a1-3)]GlcNAc
# Method in brief: as §1
# [21] = molecular target: Gal(b1-3)[Fuc(a1-4)]GlcNAc(b1-6)GalNAc
# Method in brief: as §1
# [22] = molecular target: Gal(b1-3)[GlcNAc(b1-6)]GalNAc
# Method in brief: as §1
# [23] = molecular target: Gal(b1-3)[Neu5Ac(a2-6)]GalNAc
# Method in brief: as §1
# [24] = molecular target: Gal(b1-3)[Neu5Ac(a2-6)]GlcNAc(b1-4)Gal(b1-4)Glc
# Method in brief: as §1
# [25] = molecular target: Gal(b1-3)[Neu5Ac(b2-6)]GalNAc
# Method in brief: as §1
# Gal(b1-4)Gal = molecular target: Gal(b1-4)Gal
# Method in brief: as §1
# [26] = molecular target: Gal(b1-4)GalNAc(a1-3)[Fuc(a1-2)]Gal(b1-4)GlcNAc
# Method in brief: as §1
# [27] = molecular target: Gal(b1-4)GalNAc(b1-3)[Fuc(a1-2)]Gal(b1-4)GlcNAc
# Method in brief: as §1
# Gal(b1-4)Glc = molecular target: Gal(b1-4)Glc
# Method in brief: as §1
# Gal(b1-4)Glc6S = molecular target: Gal(b1-4)Glc6S
# Method in brief: as §1
# Gal(b1-4)GlcNAc = molecular target: Gal(b1-4)GlcNAc
# Method in brief: as §1
# [28] = molecular target: Gal(b1-4)GlcNAc(a1-6)Gal(b1-4)GlcNAc
# Method in brief: as §1
# Gal(b1-4)GlcNAc(b1-2)Man = molecular target: Gal(b1-4)GlcNAc(b1-2)Man
# Method in brief: as §1
# [29] = molecular target: Gal(b1-4)GlcNAc(b1-2)Man(a1-3)Man(b1-4)GlcNAc(b1-4)GlcNAc
# Method in brief: as §1
# [30] = molecular target: Gal(b1-4)GlcNAc(b1-2)Man(a1-3)[Gal(b1-4)GlcNAc(b1-2)Man(a1-6)]Man(b1-4)GlcNAc(b1-4)GlcNAc
# Method in brief: as §1
# [31] = molecular target: Gal(b1-4)GlcNAc(b1-2)Man(a1-3)[Gal(b1-4)GlcNAc(b1-2)Man(a1-6)]Man(b1-4)GlcNAc(b1-4)[Fuc(a1-6)]GlcNAc
# Method in brief: as §1
# [32] = molecular target: Gal(b1-4)GlcNAc(b1-2)Man(a1-3)[Gal(b1-4)GlcNAc(b1-2)Man(a1-6)][Gal(b1-4)GlcNAc(b1-4)]Man(b1-4)GlcNAc(b1-4)[Fuc(a1-6)]GlcNAc
# Method in brief: as §1
# [33] = molecular target: Gal(b1-4)GlcNAc(b1-2)Man(a1-3)[Gal(b1-4)GlcNAc(b1-2)Man(a1-6)][GlcNAc(b1-4)]Man(b1-4)GlcNAc(b1-4)[Fuc(a1-6)]GlcNAc
# Method in brief: as §1
# [34] = molecular target: Gal(b1-4)GlcNAc(b1-2)Man(a1-3)[GlcNAc(b1-2)Man(a1-6)]Man(b1-4)GlcNAc(b1-4)GlcNAc
# Method in brief: as §1
# [35] = molecular target: Gal(b1-4)GlcNAc(b1-2)Man(a1-3)[GlcNAc(b1-4)][Gal(b1-4)GlcNAc(b1-2)Man(a1-6)]Man(b1-4)GlcNAc(b1-4)GlcNAc
# Method in brief: as §1
# [36] = molecular target: Gal(b1-4)GlcNAc(b1-2)Man(a1-3)[Man(a1-6)]Man(b1-4)GlcNAc(b1-4)GlcNAc
# Method in brief: as §1
# [37] = molecular target: Gal(b1-4)GlcNAc(b1-2)Man(a1-6)Man(b1-4)GlcNAc(b1-4)GlcNAc
# Method in brief: as §1
# [38] = molecular target: Gal(b1-4)GlcNAc(b1-2)Man(a1-6)[GlcNAc(b1-2)Man(a1-3)]Man(b1-4)GlcNAc(b1-4)GlcNAc
# Method in brief: as §1
# [39] = molecular target: Gal(b1-4)GlcNAc(b1-2)Man(a1-6)[Man(a1-3)]Man(b1-4)GlcNAc(b1-4)GlcNAc
# Method in brief: as §1
binder,measurement,setting,value
Pbx1CASH domain (Cryptococcus neoformans) (protein) MDETKPLWGNPRADGISLACKDSIVERNVVYDATDGAIVLFGSAGSTVKNNHVYARTRVILGGINLVDYEPWDGDYTNVKVHHNHLYALGRYFKVGIVIGPASWSDDTESVVHSASVTDNEFSGGYWGYGIVVASAKNFEVLRNKVIWDGEQGVARFSGVPGS,glycan array binding signal (z-score),[1],0.331
same,glycan array binding signal (z-score),[2],0.784
same,glycan array binding signal (z-score),[3],-0.464
same,glycan array binding signal (z-score),[4],-0.602
same,glycan array binding signal (z-score),[5],-0.422
same,glycan array binding signal (z-score),[6],-0.328
same,glycan array binding signal (z-score),[7],-0.438
same,glycan array binding signal (z-score),[8],0.49
same,glycan array binding signal (z-score),[9],0.76
same,glycan array binding signal (z-score),[10],-0.17
same,glycan array binding signal (z-score),[11],-0.446
same,glycan array binding signal (z-score),[12],1.17
same,glycan array binding signal (z-score),[13],0.195
same,glycan array binding signal (z-score),[14],0.181
same,glycan array binding signal (z-score),[15],1.3
same,glycan array binding signal (z-score),Gal(b1-3)GlcNAc6S,1.34
same,glycan array binding signal (z-score),[16],-0.336
same,glycan array binding signal (z-score),[17],1.14
same,glycan array binding signal (z-score),[18],-0.007
same,glycan array binding signal (z-score),[19],-1
same,glycan array binding signal (z-score),[20],0.111
same,glycan array binding signal (z-score),[21],0.923
same,glycan array binding signal (z-score),[22],-0.562
same,glycan array binding signal (z-score),[23],-0.674
same,glycan array binding signal (z-score),[24],0.189
same,glycan array binding signal (z-score),[25],-0.655
same,glycan array binding signal (z-score),Gal(b1-4)Gal,1.1
same,glycan array binding signal (z-score),[26],-0.791
same,glycan array binding signal (z-score),[27],-0.748
same,glycan array binding signal (z-score),Gal(b1-4)Glc,-0.237
same,glycan array binding signal (z-score),Gal(b1-4)Glc6S,-0.632
same,glycan array binding signal (z-score),Gal(b1-4)GlcNAc,-0.813
same,glycan array binding signal (z-score),[28],-0.645
same,glycan array binding signal (z-score),Gal(b1-4)GlcNAc(b1-2)Man,0.337
same,glycan array binding signal (z-score),[29],-0.434
same,glycan array binding signal (z-score),[30],0.009
same,glycan array binding signal (z-score),[31],-0.339
same,glycan array binding signal (z-score),[32],0.254
same,glycan array binding signal (z-score),[33],0.423
same,glycan array binding signal (z-score),[34],-0.194
same,glycan array binding signal (z-score),[35],0.433
same,glycan array binding signal (z-score),[36],-0.015
same,glycan array binding signal (z-score),[37],-0.018
same,glycan array binding signal (z-score),[38],-0.228
same,glycan array binding signal (z-score),[39],0.527

# Reformatted with bars between the fields: entries from further up.
binder | measurement | setting | value
Pbx1CASH domain (Cryptococcus neoformans) (protein) MDETKPLWGNPRADGISLACKDSIVERNVVYDATDGAIVLFGSAGSTVKNNHVYARTRVILGGINLVDYEPWDGDYTNVKVHHNHLYALGRYFKVGIVIGPASWSDDTESVVHSASVTDNEFSGGYWGYGIVVASAKNFEVLRNKVIWDGEQGVARFSGVPGS | glycan array binding signal (z-score) | [6] | -0.328
same | glycan array binding signal (z-score) | [13] | 0.195
same | glycan array binding signal (z-score) | [21] | 0.923
same | glycan array binding signal (z-score) | [22] | -0.562
same | glycan array binding signal (z-score) | [27] | -0.748
same | glycan array binding signal (z-score) | Gal(b1-4)Glc | -0.237
same | glycan array binding signal (z-score) | [31] | -0.339
same | glycan array binding signal (z-score) | [38] | -0.228
